These are yes or no findings as the source states them, for the method shown. Some results given as binding are weak or reduced against the parent protein; the word gives no strength.
Columns and labels:
[1] = biological target: CD9 on cancer cell lines (2774, UO31, AsPC-1, MIA PaCa) (human) (UniProt P21926); assay: FACS
[2] = biological target: CD9 on cancer cell lines (2774, UO31, AsPC-1, MIA PaCa) (human) (UniProt P21926); assay: FACS with whole IgG supernatant on ovarian cancer cell line
[3] = biological target: CD9-ECL2 mutant M4 (human, with rat residues) (UniProt P21926); assay: ELISA, antibody coated

Amino acid sequences for entries named in this document (tags omitted). A change or cut given only in a name is not applied to a line headed by its entry. Residues count along the entry.
UniProt P21926, residues 2-228: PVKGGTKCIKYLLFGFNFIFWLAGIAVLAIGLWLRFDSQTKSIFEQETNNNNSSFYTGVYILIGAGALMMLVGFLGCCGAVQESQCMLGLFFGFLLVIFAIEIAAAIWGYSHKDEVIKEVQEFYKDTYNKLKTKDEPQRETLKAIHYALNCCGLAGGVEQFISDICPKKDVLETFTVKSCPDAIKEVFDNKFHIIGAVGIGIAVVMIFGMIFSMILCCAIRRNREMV

Measured: binding

B1: 10E4 whole IgG (antibody, V domains shown)
VH: MAQVQLVQSGGGLVQPGRSLRLSCAASGFTFDDFAMHWVRQAPGKGLEWVAGISWNSGDIRYADSVRGRFTISRDNAKNSLFLQMNSLRAEDTAVYYCARSPVGTTYFDYWGQGALITVSS
VL: DIQMTQSPSSLSASVGDRVTITCRASQGISSYLAWYQQKPGKAPKLLIYAASTLQSEVPSRFSGSGSGTDFTLTISSLQPEDFATYYCQQLNIFPLTFGGTKVDIKR
binds: all assays above
